We go through one compound from PubChem BioAssay AID186 (DTP/NCI, 2004).

SMILES strings stand for the structures. Values are animals surviving of animals treated; these mice carried no tumour. Counts of survivors are from the toxicity check (mostly the fifth day) where no day follows; animals may have died later. Schedule codes are those of the source, taken here to give the interval after Q, in days (D) or hours (H), and the number of doses after X.

The subject of this assay is B6D2F1 mice, nontumored toxicity test, survival. Nature of the assay: NCI In Vivo Anticancer Drug Screen. Data for tumor model Nontumored Animals (Toxicity Test) in B6D2F1 (BDF1) mice. The settings on record: schedule: Q01DX009 (ip), vehicle: distilled water + Tween-80.

Turning to `OC(CBr)C(O)C(O)C(O)CBr` (centres undefined), the survivor count is 5 of 5 (dose: 120.0 mg/kg/injection), 5 of 5 (dose: 200.0 mg/kg/injection), 5 of 5 (dose: 333.0 mg/kg/injection) and 3 of 4 (dose: 556.0 mg/kg/injection).
